Measured values from patent US20100113575A1.
No constants are given. Whether binding was seen depends on the method and setting. Binding seen in cells or lysates may run through a third protein. Some results given as binding are weak or reduced against the parent protein; the word gives no strength.

Sequences of proteins named here, by UniProt entry; tags and fusion partners are left off. A change or cut given only in a name is not applied to a line headed by its entry.
UniProt Q8NBP7: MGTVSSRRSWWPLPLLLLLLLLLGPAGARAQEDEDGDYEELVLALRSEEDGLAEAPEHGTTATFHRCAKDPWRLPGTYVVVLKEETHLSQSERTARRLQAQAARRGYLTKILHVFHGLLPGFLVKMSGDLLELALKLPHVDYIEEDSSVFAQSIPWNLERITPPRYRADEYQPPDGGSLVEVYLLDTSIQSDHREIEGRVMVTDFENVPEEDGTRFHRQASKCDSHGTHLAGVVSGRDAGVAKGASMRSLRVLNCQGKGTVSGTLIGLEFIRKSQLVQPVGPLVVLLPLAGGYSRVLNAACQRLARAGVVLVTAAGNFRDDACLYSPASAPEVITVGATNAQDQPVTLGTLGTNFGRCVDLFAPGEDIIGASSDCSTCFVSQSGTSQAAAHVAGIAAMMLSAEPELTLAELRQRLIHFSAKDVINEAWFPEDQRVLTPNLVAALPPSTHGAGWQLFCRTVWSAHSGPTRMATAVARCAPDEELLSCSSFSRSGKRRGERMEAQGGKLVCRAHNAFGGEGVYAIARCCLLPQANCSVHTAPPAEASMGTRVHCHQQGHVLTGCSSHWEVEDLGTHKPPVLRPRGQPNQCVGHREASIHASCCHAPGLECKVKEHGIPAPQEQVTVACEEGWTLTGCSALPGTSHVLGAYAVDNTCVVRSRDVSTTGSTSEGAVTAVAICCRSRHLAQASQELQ

Legend:
[1] = target: processed WT PCSK9, mature chain (human) (UniProt Q8NBP7); test: co-purification over columns
[2] = target: processed D186A PCSK9, mature chain (human) (UniProt Q8NBP7); test: co-purification over columns, Coomassie gel

binding [1]: binds
binding [2]: binds
Substance: PCSK9 pro domain (from UniProt Q8NBP7 31-152)
